Source: the supplement of paper PMC10849652
The list shows a part of the results.

By UniProt entry, the sequences of proteins in these tests, tags left out.
UniProt Q8N201, whole entry, looked up: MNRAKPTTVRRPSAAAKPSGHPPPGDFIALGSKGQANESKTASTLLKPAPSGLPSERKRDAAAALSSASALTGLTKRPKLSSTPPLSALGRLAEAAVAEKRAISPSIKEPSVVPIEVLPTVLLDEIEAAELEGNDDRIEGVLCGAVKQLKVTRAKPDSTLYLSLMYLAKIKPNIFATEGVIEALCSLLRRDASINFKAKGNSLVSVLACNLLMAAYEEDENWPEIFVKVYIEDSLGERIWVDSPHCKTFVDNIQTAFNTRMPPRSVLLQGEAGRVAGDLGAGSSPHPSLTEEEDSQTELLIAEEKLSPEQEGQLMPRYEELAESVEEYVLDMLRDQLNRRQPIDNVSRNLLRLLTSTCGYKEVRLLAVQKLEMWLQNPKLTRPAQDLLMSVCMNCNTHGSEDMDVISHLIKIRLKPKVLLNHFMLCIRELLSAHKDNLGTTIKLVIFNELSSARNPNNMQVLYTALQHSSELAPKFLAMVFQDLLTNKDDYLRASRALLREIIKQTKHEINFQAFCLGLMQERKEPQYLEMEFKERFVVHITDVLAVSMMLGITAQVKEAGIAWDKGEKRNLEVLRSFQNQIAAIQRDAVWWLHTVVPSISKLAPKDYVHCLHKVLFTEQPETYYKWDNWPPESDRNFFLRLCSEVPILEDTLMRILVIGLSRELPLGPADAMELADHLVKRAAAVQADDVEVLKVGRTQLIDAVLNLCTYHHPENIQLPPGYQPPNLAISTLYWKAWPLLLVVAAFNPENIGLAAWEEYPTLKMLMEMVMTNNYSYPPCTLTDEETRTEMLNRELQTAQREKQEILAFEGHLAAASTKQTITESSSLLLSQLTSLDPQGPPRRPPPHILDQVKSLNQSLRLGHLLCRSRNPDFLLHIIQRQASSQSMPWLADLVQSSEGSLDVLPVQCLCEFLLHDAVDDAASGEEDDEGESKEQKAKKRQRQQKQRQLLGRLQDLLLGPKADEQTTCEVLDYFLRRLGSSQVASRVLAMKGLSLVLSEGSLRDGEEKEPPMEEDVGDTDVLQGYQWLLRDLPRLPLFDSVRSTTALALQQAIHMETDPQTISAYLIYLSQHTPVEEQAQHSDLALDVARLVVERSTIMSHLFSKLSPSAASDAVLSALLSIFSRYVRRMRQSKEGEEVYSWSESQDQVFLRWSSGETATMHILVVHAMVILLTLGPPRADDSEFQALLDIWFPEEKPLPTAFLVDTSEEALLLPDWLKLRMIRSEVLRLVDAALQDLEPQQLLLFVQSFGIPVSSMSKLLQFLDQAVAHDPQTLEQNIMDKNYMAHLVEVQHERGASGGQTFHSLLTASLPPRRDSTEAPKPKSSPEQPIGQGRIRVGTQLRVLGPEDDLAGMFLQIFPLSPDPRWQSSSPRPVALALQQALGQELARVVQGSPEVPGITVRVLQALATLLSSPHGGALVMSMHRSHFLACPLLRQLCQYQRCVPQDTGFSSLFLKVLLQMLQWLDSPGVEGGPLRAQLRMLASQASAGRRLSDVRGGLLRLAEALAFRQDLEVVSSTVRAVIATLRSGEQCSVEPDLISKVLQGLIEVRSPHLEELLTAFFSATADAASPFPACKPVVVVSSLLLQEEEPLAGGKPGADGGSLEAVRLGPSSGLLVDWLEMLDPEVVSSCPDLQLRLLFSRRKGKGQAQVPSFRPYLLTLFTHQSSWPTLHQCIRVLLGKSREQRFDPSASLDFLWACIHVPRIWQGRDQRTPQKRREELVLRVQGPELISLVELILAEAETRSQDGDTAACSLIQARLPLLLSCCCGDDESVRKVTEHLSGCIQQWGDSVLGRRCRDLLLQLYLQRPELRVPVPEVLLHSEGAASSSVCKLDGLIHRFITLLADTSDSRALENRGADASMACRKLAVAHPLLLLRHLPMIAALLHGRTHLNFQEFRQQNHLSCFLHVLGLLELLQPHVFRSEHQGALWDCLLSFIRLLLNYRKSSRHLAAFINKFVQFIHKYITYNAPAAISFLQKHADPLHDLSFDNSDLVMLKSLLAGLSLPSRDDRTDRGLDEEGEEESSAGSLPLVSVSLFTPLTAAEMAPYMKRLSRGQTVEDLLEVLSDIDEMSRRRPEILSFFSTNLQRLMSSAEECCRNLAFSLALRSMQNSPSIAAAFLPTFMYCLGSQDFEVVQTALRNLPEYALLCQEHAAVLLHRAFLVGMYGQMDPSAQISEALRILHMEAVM
UniProt Q7Z6Z7, whole entry, looked up: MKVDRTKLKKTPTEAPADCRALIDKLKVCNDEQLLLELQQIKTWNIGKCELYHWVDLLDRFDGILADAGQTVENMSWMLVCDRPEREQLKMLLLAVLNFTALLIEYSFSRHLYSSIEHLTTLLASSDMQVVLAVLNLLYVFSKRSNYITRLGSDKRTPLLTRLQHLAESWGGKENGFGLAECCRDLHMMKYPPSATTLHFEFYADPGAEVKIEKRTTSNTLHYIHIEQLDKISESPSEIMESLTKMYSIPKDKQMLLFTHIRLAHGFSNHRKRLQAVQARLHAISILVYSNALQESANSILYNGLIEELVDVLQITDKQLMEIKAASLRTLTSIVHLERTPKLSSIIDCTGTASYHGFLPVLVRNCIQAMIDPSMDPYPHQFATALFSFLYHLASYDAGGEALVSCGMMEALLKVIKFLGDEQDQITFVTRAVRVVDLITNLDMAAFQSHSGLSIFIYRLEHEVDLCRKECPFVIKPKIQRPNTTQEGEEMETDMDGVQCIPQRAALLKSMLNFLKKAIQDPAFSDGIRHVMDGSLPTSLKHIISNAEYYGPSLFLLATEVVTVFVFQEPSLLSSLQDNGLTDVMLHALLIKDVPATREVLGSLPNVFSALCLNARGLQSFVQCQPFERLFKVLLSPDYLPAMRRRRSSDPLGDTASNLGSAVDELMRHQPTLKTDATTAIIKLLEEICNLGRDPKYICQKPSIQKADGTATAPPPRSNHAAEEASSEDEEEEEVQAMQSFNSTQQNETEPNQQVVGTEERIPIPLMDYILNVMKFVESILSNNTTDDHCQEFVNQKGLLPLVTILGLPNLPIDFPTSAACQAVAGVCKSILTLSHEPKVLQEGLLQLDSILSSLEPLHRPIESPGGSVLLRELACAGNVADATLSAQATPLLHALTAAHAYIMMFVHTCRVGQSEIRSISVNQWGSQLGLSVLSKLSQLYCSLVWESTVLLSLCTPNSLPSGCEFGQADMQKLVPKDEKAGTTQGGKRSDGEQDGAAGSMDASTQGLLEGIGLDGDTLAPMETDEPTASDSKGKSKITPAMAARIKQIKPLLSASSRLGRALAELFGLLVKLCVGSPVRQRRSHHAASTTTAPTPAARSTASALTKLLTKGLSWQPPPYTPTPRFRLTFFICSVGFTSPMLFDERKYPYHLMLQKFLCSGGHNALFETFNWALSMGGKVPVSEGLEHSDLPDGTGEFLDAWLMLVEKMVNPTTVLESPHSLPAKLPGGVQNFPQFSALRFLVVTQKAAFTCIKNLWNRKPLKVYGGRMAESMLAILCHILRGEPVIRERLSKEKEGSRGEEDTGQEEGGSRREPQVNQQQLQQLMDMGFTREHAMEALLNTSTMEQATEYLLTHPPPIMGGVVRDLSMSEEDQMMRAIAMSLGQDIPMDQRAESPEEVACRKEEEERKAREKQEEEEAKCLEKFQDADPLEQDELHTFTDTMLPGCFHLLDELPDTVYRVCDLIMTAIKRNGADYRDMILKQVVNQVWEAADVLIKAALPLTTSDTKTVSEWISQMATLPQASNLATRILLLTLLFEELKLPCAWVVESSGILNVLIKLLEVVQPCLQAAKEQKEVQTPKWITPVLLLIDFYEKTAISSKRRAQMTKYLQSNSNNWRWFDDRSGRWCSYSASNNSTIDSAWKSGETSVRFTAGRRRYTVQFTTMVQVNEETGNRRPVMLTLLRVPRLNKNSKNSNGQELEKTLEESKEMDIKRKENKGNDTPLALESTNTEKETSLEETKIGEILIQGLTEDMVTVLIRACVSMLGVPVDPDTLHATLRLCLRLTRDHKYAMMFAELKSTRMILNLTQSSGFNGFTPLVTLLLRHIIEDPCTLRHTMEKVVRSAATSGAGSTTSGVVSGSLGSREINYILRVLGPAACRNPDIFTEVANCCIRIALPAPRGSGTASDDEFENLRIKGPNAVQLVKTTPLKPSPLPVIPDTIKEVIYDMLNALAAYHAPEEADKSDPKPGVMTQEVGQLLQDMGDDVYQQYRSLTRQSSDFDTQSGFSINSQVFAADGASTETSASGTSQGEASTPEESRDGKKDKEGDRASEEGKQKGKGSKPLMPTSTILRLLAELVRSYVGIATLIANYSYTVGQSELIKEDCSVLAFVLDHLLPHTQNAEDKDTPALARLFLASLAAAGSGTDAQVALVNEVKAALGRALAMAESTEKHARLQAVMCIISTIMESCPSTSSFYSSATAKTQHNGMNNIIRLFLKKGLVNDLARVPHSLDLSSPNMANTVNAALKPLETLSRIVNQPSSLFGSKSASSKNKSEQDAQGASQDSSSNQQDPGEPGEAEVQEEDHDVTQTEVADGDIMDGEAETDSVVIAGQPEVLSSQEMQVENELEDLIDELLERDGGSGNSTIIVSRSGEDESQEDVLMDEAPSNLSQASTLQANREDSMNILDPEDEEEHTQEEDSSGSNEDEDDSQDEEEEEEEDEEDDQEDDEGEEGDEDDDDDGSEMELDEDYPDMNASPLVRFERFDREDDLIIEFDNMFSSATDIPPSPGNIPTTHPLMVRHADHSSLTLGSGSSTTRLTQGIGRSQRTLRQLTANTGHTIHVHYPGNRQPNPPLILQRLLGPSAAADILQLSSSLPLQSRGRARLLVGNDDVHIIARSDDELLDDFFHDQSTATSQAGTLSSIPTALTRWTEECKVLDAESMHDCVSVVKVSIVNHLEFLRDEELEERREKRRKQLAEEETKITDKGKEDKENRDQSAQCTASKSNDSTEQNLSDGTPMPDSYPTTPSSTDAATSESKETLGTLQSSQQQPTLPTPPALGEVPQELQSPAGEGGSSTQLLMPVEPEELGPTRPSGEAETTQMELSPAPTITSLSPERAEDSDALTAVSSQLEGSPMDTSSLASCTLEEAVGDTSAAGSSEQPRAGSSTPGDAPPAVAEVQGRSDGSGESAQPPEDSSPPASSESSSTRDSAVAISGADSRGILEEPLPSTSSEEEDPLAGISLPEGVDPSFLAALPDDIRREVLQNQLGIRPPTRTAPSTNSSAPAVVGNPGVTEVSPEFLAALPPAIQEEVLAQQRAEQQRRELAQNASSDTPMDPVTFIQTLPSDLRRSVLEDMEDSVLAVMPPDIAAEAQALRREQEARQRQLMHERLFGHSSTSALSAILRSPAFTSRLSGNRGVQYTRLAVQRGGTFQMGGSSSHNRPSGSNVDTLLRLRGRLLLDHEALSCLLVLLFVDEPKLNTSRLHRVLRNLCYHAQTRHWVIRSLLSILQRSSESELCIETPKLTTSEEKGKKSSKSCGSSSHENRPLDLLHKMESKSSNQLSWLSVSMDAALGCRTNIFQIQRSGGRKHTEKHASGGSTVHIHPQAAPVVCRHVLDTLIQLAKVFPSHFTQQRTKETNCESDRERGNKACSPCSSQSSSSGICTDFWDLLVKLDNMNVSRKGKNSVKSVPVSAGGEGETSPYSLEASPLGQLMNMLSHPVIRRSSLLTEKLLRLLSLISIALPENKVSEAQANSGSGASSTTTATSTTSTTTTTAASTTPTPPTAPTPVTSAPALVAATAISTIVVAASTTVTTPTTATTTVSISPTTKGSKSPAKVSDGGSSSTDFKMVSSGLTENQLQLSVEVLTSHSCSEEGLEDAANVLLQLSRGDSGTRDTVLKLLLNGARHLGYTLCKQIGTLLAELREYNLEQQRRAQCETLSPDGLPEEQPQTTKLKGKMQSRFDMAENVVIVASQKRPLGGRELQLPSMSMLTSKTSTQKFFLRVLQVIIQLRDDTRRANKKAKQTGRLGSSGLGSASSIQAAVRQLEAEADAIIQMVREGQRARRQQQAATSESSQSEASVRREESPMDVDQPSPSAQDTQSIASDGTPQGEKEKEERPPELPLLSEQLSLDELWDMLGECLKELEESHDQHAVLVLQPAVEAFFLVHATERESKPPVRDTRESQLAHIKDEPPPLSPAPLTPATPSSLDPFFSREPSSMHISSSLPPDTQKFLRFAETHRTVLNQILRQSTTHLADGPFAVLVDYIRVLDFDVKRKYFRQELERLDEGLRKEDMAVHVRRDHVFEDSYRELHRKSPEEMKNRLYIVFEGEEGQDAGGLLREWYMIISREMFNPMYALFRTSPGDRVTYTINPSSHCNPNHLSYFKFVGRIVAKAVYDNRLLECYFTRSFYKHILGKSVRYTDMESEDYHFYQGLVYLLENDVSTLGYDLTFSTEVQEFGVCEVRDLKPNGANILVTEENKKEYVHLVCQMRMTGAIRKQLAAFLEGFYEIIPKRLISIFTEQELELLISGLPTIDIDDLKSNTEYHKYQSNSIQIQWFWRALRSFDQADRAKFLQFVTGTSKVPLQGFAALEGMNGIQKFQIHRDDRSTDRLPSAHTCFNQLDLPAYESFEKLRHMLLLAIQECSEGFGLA

Legend:
Assay in all cases: log2 fold change, soluble protein after heating vs DMSO (PISA); higher = thermal stabilisation; K562 lysate, 10 uM; active = over 0.2 and 3.5 SD of the protein, either way, in both replicates (recomputed)
alvocidib = compound: CN1CC[C@H](c2c(O)cc(O)c3c(=O)cc(-c4ccccc4Cl)oc23)[C@H](O)C1 [alvocidib]
Method in brief: (§1)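 Log-two fold change in thermal stability relative to solvent controls is reported from duplicates. For each sample, crude K562 extract from dounce-homogenised pellets in PBS pH 7.4 with 1 mM MgCl2, at 1 mg/mL protein, was treated with 10 μM compound for 30 min. Aliquots heated for 3 min across 48°C-58°C were pooled, brought to 0.5% NP-40 at 4°C and cleared at 21,000xg for 90 min. The supernatant was quantified by TMTpro 16plex LC-MS/MS with channel sums equalised.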

Tubastatin A = compound: CN1CCc2c(c3ccccc3n2Cc2ccc(C(=O)NO)cc2)C1 [Tubastatin A]
Method in brief: as §1

[1] = compound: CNC(=O)C1=CC=CC=C1NC2=NC(=NC=C2Cl)NC3=C(C=C(C=C3)N4CCOCC4)OC
Method in brief: as §1

defactinib = compound: CNC(=O)c1ccc(Nc2ncc(C(F)(F)F)c(NCc3nccnc3N(C)S(C)(=O)=O)n2)cc1 [defactinib]
Method in brief: as §1

[2] = compound: CNc1nc(-c2ccc3c(N)n[nH]c3c2)cc(N2C[C@@H](C(=O)NC3CCCCC3)CC[C@H]2C)n1
Method in brief: as §1

encorafenib = compound: COC(=O)N[C@@H](C)CNc1nccc(-c2cn(C(C)C)nc2-c2cc(Cl)cc(NS(C)(=O)=O)c2F)n1 [encorafenib]
Method in brief: as §1

[3] = compound: COC(=O)[C@H](CCSC)NC(=O)C1=C(C=C(C=C1)NC[C@H](CS)N)C2=CC=CC=C2
Method in brief: as §1

alisertib = compound: COc1cc(Nc2ncc3c(n2)-c2ccc(Cl)cc2C(c2c(F)cccc2OC)=NC3)ccc1C(=O)O [alisertib]
Method in brief: as §1

[4] = compound: COc1cc2nc(-c3cc(F)ccc3O)nc(N[C@@H]3CNC[C@H]3C(C)(C)O)c2cc1OC
Method in brief: as §1

gefitinib = compound: COc1cc2ncnc(Nc3ccc(F)c(Cl)c3)c2cc1OCCCN1CCOCC1 [gefitinib]
Method in brief: as §1

Row | Target | log2 fold change (alvocidib) | log2 fold change (Tubastatin A) | log2 fold change [1] | log2 fold change (defactinib) | log2 fold change [2] | log2 fold change (encorafenib) | log2 fold change [3] | log2 fold change (alisertib) | log2 fold change [4] | log2 fold change (gefitinib)
1 | IFI35 isoform 2 (UniProt P80217) | inactive: -0.034 | inactive: 0.039 | inactive: 0.01 | inactive: -0.027 | inactive: 0.016 | inactive: 0.005 | inactive: 0.033 | inactive: -0.03 | inactive: -0.018 | inactive: -0.006
2 | HSPA8 (UniProt E9PK54) | inactive: -0.047 | inactive: 0.036 | inactive: -0.066 | inactive: -0.041 | inactive: -0.05 | inactive: -0.025 | inactive: -0.004 | inactive: -0.016 | inactive: 0.016 | inactive: -0.051
3 | ICAM2 (UniProt P13598) | inactive: 0.078 | inactive: 0.017 | inactive: 0.032 | inactive: 0.039 | inactive: -0.019 | inactive: -0.026 | inactive: -0.065 | inactive: -0.016 | inactive: 0.009 | inactive: -0.02
4 | ICAM1 (UniProt P05362) | inactive: -0.044 | inactive: 0.034 | inactive: -0.003 | inactive: -0.019 | inactive: 0.06 | inactive: -0.014 | inactive: -0.015 | inactive: 0.032 | inactive: -0.007 | inactive: 0.002
5 | IGSF3 (UniProt O75054) | inactive: -0.024 | inactive: -0.013 | inactive: 0.02 | inactive: 0.045 | inactive: 0.039 | inactive: 0.005 | inactive: -0.061 | inactive: -0.024 | inactive: 0.007 | inactive: 0.065
6 | IMPDH2 (UniProt P12268) | inactive: 0.026 | active: -0.226 | inactive: 0.013 | inactive: 0.03 | inactive: 0.017 | inactive: 0.021 | active: -0.501 | inactive: 0.029 | inactive: -0.015 | inactive: -0.023
7 | IKZF1 (UniProt Q13422) | inactive: 0.025 | inactive: -0.005 | inactive: 0.059 | inactive: 0.029 | inactive: 0.014 | inactive: 0.004 | inactive: -0.004 | inactive: 0.093 | inactive: -0.053 | inactive: -0.006
8 | IFRD1 (UniProt O00458) | inactive: 0.094 | inactive: 0.025 | inactive: 0.005 | inactive: 0.02 | inactive: -0.056 | inactive: 0.034 | inactive: -0.015 | inactive: -0.032 | inactive: -0.012 | inactive: 0.075
9 | HTATIP2 isoform 3 (UniProt Q9BUP3) | inactive: 0.031 | inactive: -0.104 | inactive: -0.025 | inactive: 0.019 | inactive: -0.041 | inactive: 0.007 | inactive: 0.015 | inactive: -0.015 | inactive: -0.015 | inactive: 0.001
10 | INTS10 (UniProt Q9NVR2) | inactive: -0.009 | inactive: -0.143 | inactive: -0.033 | inactive: 0.016 | inactive: -0.045 | inactive: -0.017 | inactive: 0.043 | inactive: -0.093 | inactive: -0.097 | inactive: 0.049
11 | HSPG2 (UniProt P98160) | inactive: -0.037 | inactive: -0.002 | inactive: 0.001 | inactive: 0.001 | inactive: 0.029 | inactive: 0.021 | inactive: 0.043 | inactive: -0.109 | inactive: 0.011 | inactive: 0.05
12 | IGF2BP3 (UniProt O00425) | inactive: 0.012 | inactive: -0.147 | inactive: -0.022 | inactive: -0.028 | inactive: -0.016 | inactive: -0.022 | inactive: 0.218 | inactive: 0.006 | inactive: -0.003 | inactive: -0.017
13 | IGBP1 (UniProt P78318) | inactive: -0.02 | inactive: 0.001 | inactive: 0.049 | inactive: 0.018 | inactive: 0.044 | inactive: -0.019 | inactive: -0.136 | inactive: 0.007 | inactive: -0.005 | inactive: 0.022
14 | IBA57 (UniProt Q5T440) | inactive: -0.036 | inactive: 0.019 | inactive: -0.012 | inactive: -0.018 | inactive: -0.055 | inactive: -0.01 | inactive: 0.004 | inactive: 0.019 | inactive: -0.014 | inactive: 0.005
15 | INTS1 (UniProt Q8N201) | inactive: 0.009 | inactive: -0.028 | inactive: 0.013 | inactive: 0.019 | inactive: 0.004 | inactive: 0.028 | inactive: -0.018 | inactive: 0.021 | inactive: 0.007 | inactive: -0.04
16 | IMMP2L (UniProt Q96T52) | inactive: -0.045 | inactive: 0.077 | inactive: -0.107 | inactive: -0.007 | inactive: 0.068 | inactive: 0.029 | inactive: 0.155 | inactive: 0.039 | inactive: -0.003 | inactive: 0.053
17 | ILF2 (UniProt Q12905) | inactive: 0.026 | inactive: -0.001 | inactive: -0.004 | inactive: -0.013 | inactive: 0.044 | inactive: 0.017 | inactive: -0.028 | inactive: 0.015 | inactive: 0.014 | inactive: -0.007
18 | INPP5K (UniProt Q9BT40) | inactive: -0.018 | inactive: -0.071 | inactive: 0.044 | inactive: -0.217 | inactive: -0.074 | inactive: -0.049 | inactive: -0.088 | inactive: 0.175 | inactive: 0.009 | inactive: 0.017
19 | INPPL1 (UniProt O15357) | inactive: -0.001 | inactive: -0.177 | inactive: 0.039 | inactive: 0 | inactive: -0.001 | inactive: 0.009 | inactive: 0.037 | inactive: 0.036 | inactive: -0.013 | inactive: 0.01
20 | INPP5F (UniProt Q9Y2H2) | inactive: -0.073 | inactive: 0.25 | inactive: 0.059 | inactive: -0.085 | inactive: 0.96 | inactive: -0.146 | inactive: 0.133 | inactive: -0.117 | inactive: 0.173 | inactive: 0.015
21 | IDH3B (UniProt O43837) | inactive: -0.022 | inactive: -0.013 | inactive: -0.043 | inactive: 0.016 | inactive: -0.003 | inactive: -0.025 | inactive: 0.058 | inactive: 0.014 | inactive: -0.014 | inactive: -0.039
22 | IER3IP1 (UniProt Q9Y5U9) | inactive: -0.162 | inactive: -0.269 | inactive: 0.077 | inactive: 0.015 | inactive: 0.059 | inactive: 0.062 | inactive: -0.024 | inactive: -0.136 | inactive: -0.129 | inactive: 0.154
23 | HUWE1 (UniProt Q7Z6Z7) | inactive: -0.006 | inactive: -0.022 | inactive: 0.026 | inactive: -0.009 | inactive: 0.012 | inactive: 0.006 | inactive: -0.001 | inactive: 0.007 | inactive: 0.002 | inactive: -0.005
24 | IL18R1 (UniProt Q13478) | inactive: -0.148 | inactive: 0.008 | inactive: -0.106 | inactive: -0.322 | inactive: 0.056 | inactive: 0.116 | inactive: 0.142 | inactive: -0.098 | inactive: -0.014 | inactive: -0.039
25 | IGF2BP1 (UniProt Q9NZI8) | inactive: 0.001 | inactive: -0.148 | inactive: 0.005 | inactive: 0.009 | inactive: -0.027 | inactive: -0.003 | inactive: 0.195 | inactive: 0.012 | inactive: -0.008 | inactive: -0.015
26 | INTS12 (UniProt Q96CB8) | inactive: 0.026 | inactive: -0.048 | inactive: 0.096 | inactive: 0.028 | inactive: 0.009 | inactive: 0.032 | inactive: -0.1 | inactive: -0.025 | inactive: 0.069 | inactive: -0.025
27 | INF2 (UniProt Q27J81) | inactive: -0.027 | inactive: -0.062 | inactive: 0.022 | inactive: 0.117 | inactive: -0.104 | inactive: -0.068 | inactive: 0.083 | inactive: -0.008 | inactive: -0.01 | inactive: -0.009
28 | IKBIP (UniProt Q70UQ0) | inactive: -0.036 | inactive: 0.015 | inactive: 0.008 | inactive: 0.011 | inactive: -0.02 | inactive: 0.02 | inactive: 0.027 | inactive: 0.093 | inactive: 0.01 | inactive: 0.042
29 | HSPBP1 (UniProt Q9NZL4) | inactive: -0.005 | inactive: 0 | inactive: -0.003 | inactive: -0.003 | inactive: 0.012 | inactive: 0.004 | inactive: -0.019 | inactive: -0.009 | inactive: 0.004 | inactive: 0.007

Individual results from above:
Entry for HTATIP2 isoform 3 (UniProt Q9BUP3) under log2 fold change (alvocidib): inactive: 0.031
Entry for IFRD1 (UniProt O00458) under log2 fold change [4]: inactive: -0.012
